Results deposited as PubChem BioAssay AID743458 (Peter MacCallum Cancer Centre, 2014).
Test: 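Retest earlier hits with independent siRNAs per gene for restoring vorinostat sensitivity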 (follow-up of hits). System: human HCT116-VR colon cancer cells made resistant to vorinostat. Reagent: single siRNA or pool against human genes, 25 nM per single siRNA. Time to read-out: about 72 h after transfection, including 24 h of drug. Treatment: vorinostat, 2.5 µM final, for 24 h. Measurement: 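Cell viability by fluorescence and apoptosis by caspase 3/7 luminescence under vorinostat, background-corrected, averaged across two plate copies and given as fold change versus mock transfection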. Scale: viability relative to mock: higher = more living cells than mock; caspase activity relative to mock: higher = more apoptosis than mock. Call rule: 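An siRNA counts as active if classed as reduced viability or as caspase activation, otherwise inactive; a hit class needed wells that remained healthy in the absence of drug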.
Shown is a random part of about 1,800 deposited reagents. In the full data, 732 (41%) got an active call. 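Calls are per siRNA reagent; a gene was deemed confirmed only if most of its four siRNAs scored.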 A number with no mark means an inactive call. Reagents against one gene are numbered here.

Gene	reagent no.	viability relative to mock	caspase activity relative to mock	viability hit class	caspase hit class
SIAH2 (siah E3 ubiquitin protein ligase 2)	1	0.86	1.35	no change	no change
SIAH2 (siah E3 ubiquitin protein ligase 2)	2	1.03	1.01	no change	no change
SIAH2 (siah E3 ubiquitin protein ligase 2)	3	0.58	0.97	no change	no change
SIAH2 (siah E3 ubiquitin protein ligase 2)	4	0.94	2.46	no change	no change
RWDD2A (RWD domain containing 2A)	1	1.08	1.21	no change	no change
RWDD2A (RWD domain containing 2A)	2	0.78 (active)	4.64	no change	caspase activation
RWDD2A (RWD domain containing 2A)	3	0.82 (active)	2.98	no change	caspase activation
RWDD2A (RWD domain containing 2A)	4	0.82 (active)	3.13	no change	caspase activation
SYTL3 (synaptotagmin like 3)	1	1.01	1.04	no change	no change
SYTL3 (synaptotagmin like 3)	2	0.96	1.04	no change	no change
SYTL3 (synaptotagmin like 3)	3	0.98	1.49	no change	no change
SYTL3 (synaptotagmin like 3)	4	1.04	1.14	no change	no change
CCL25 (C-C motif chemokine ligand 25)	1	0.64 (active)	6.73	no change	caspase activation
CCL25 (C-C motif chemokine ligand 25)	2	0.96	1.84	no change	no change
CCL25 (C-C motif chemokine ligand 25)	3	0.66	1.15	no change	no change
CCL25 (C-C motif chemokine ligand 25)	4	0.26 (active)	3.89	reduced viability	caspase activation
TRIM4 (tripartite motif containing 4)	1	1	1.4	no change	no change
TRIM4 (tripartite motif containing 4)	2	0.68	1.71	no change	no change
TRIM4 (tripartite motif containing 4)	3	0.9	0.92	no change	no change
TRIM4 (tripartite motif containing 4)	4	0.7	1.81	no change	no change
CCDC88A (coiled-coil and HOOK domain protein 88A)	1	0.66	1.06	no change	no change
CCDC88A (coiled-coil and HOOK domain protein 88A)	2	0.9	1.06	no change	no change
CCDC88A (coiled-coil and HOOK domain protein 88A)	3	0.82	1.15	no change	no change
CCDC88A (coiled-coil and HOOK domain protein 88A)	4	0.86	1.67	no change	no change
E2F2 (E2F transcription factor 2)	1	0.96	1.4	no change	no change
E2F2 (E2F transcription factor 2)	2	0.81	1.98	no change	no change
E2F2 (E2F transcription factor 2)	3	0.22 (active)	2.48	reduced viability	no change
E2F2 (E2F transcription factor 2)	4	0.62	1.77	no change	no change
CFHR1 (complement factor H related 1)	1	0.22 (active)	3.17	reduced viability	caspase activation
CFHR1 (complement factor H related 1)	2	0.88	1.42	no change	no change
CFHR1 (complement factor H related 1)	3	0.9	1.22	no change	no change
CFHR1 (complement factor H related 1)	4	0.97	1.04	no change	no change
MSS51 (MSS51 mitochondrial translational activator)	1	0.98	1.16	no change	no change
MSS51 (MSS51 mitochondrial translational activator)	2	0.74	1.67	no change	no change
MSS51 (MSS51 mitochondrial translational activator)	3	0.94	1.17	no change	no change
MSS51 (MSS51 mitochondrial translational activator)	4	0.41 (active)	4.04	reduced viability	caspase activation
OGDH (oxoglutarate dehydrogenase)	1	0.62	2.4	no change	no change
OGDH (oxoglutarate dehydrogenase)	2	0.63	1.15	no change	no change
OGDH (oxoglutarate dehydrogenase)	3	0.28 (active)	3.34	reduced viability	caspase activation
OGDH (oxoglutarate dehydrogenase)	4	0.7	1	no change	no change
RPL23AP82 (ribosomal protein L23a pseudogene 82)	1	0.98	0.93	no change	no change
RPL23AP82 (ribosomal protein L23a pseudogene 82)	2	0.32 (active)	0.93	reduced viability	no change
RPL23AP82 (ribosomal protein L23a pseudogene 82)	3	0.64	1.18	no change	no change
RPL23AP82 (ribosomal protein L23a pseudogene 82)	4	0.94	1.48	no change	no change
GPR152 (G protein-coupled receptor 152)	1	0.73	2.5	no change	no change
GPR152 (G protein-coupled receptor 152)	2	1.05	1.56	no change	no change
GPR152 (G protein-coupled receptor 152)	3	0.68	1.65	no change	no change
GPR152 (G protein-coupled receptor 152)	4	0.64 (active)	3.91	no change	caspase activation
SALL3 (spalt like transcription factor 3)	1	0.44 (active)	2.99	reduced viability	caspase activation
SALL3 (spalt like transcription factor 3)	2	0.55 (active)	4.59	reduced viability	caspase activation
SALL3 (spalt like transcription factor 3)	3	0.82	1.5	no change	no change
SALL3 (spalt like transcription factor 3)	4	0.98	1.69	no change	no change
KNCN (kinocilin)	1	0.8	1.27	no change	no change
KNCN (kinocilin)	2	1.02	1.19	no change	no change
KNCN (kinocilin)	3	0.17	3.97	no change	no change
KNCN (kinocilin)	4	0.84	1.59	no change	no change
MMP13 (matrix metallopeptidase 13)	1	0.75 (active)	3.38	no change	caspase activation
MMP13 (matrix metallopeptidase 13)	2	1	1.32	no change	no change
MMP13 (matrix metallopeptidase 13)	3	0.96	1.38	no change	no change
MMP13 (matrix metallopeptidase 13)	4	0.98	0.99	no change	no change

Copied from the list:
E2F2 (E2F transcription factor 2) #3, viability relative to mock = 0.22 (active)
Under “viability hit class”, MSS51 (MSS51 mitochondrial translational activator) #2 is entered as no change
For “viability relative to mock”, KNCN (kinocilin) #3 is entered as 0.17
